The text below walks through data of PMC8200828, “Phylogenetic and Structural Analysis of NIN-Like Proteins With a Type I/II PB1 Domain That Regulates Oligomerization for Nitrate Response” (Frontiers in Plant Science, 2021).

Changes are numbered by the printed parent chain. Numbers in names are those of the source. These are yes or no findings as the source states them, for the method shown.

Assay [1] has as its target NLP7 PB1m1 (K867A) (Arabidopsis thaliana) (UniProt Q84TH9). Kind of assay: SEC; Superdex S-75 in buffer A (20 mM Tris-HCl pH 8.8, 0.5 M NaCl, 10% glycerol), calibrated with gel filtration standard markers; self-association; both purified. Background: SEC sorts molecules by how far they enter the pores of the column.
Assay [2] shares this target. The assay is described as follows: dynamic light scattering; wild type and mutants after SEC, mutants in buffer A, 25 °C; concentration not given; self-association; both purified.
For assay [3], the target named is NLP7 PB1m3 (K867A/D909A/D911A) (Arabidopsis thaliana) (UniProt Q84TH9). The assay is described as follows: SEC; Superdex S-75 in buffer A (20 mM Tris-HCl pH 8.8, 0.5 M NaCl, 10% glycerol), calibrated with gel filtration standard markers; self-association; both purified.
Assay [4] has the same target. Kind of assay: dynamic light scattering; wild type and mutants after SEC, mutants in buffer A, 25 °C; concentration not given; self-association; both purified.
Assay [5] deals with NLP7 PB1m2 (D909A/D911A) (Arabidopsis thaliana) (UniProt Q84TH9). The assay is described as follows: SEC; Superdex S-75 in buffer A (20 mM Tris-HCl pH 8.8, 0.5 M NaCl, 10% glycerol), calibrated with gel filtration standard markers; self-association; both purified.
Assay [6] shares this target. Kind of assay: dynamic light scattering; wild type and mutants after SEC, mutants in buffer A, 25 °C; concentration not given; self-association; both purified.

B1: NLP7 PB1m1 (K867A) (domain or fragment, UniProt Q84TH9 863-945)
chain: TVTIAASYKDDIIRFRISSGSGIMELKDEVAKRLKVDAGTFDIKYLDDDNEWVLIACDADLQECLEIPRSSRTKIVRLLVHDV
For the molecule B1, the binding result in assay [1] and in assay [2] was “no binding” in each case.

B2: NLP7 PB1m3 (K867A/D909A/D911A) (domain or fragment, UniProt Q84TH9 863-945)
chain: B1 chain with D47A, D49A
In the case of B2, the binding result in assay [3] and in assay [4] was “no binding” throughout.

B3: NLP7 PB1m2 (D909A/D911A) (domain or fragment, UniProt Q84TH9 863-945)
chain: B1 chain with A5K, D47A, D49A
For B3, the binding entry in assay [5] and in assay [6] was “no binding” in each case.
